Data on one molecule can be found in paper PMC11420629 (2024).

Amino acid sequences for entries named in this document (tags omitted). Residues count along the entry.
UniProt P23818, residues 19-907: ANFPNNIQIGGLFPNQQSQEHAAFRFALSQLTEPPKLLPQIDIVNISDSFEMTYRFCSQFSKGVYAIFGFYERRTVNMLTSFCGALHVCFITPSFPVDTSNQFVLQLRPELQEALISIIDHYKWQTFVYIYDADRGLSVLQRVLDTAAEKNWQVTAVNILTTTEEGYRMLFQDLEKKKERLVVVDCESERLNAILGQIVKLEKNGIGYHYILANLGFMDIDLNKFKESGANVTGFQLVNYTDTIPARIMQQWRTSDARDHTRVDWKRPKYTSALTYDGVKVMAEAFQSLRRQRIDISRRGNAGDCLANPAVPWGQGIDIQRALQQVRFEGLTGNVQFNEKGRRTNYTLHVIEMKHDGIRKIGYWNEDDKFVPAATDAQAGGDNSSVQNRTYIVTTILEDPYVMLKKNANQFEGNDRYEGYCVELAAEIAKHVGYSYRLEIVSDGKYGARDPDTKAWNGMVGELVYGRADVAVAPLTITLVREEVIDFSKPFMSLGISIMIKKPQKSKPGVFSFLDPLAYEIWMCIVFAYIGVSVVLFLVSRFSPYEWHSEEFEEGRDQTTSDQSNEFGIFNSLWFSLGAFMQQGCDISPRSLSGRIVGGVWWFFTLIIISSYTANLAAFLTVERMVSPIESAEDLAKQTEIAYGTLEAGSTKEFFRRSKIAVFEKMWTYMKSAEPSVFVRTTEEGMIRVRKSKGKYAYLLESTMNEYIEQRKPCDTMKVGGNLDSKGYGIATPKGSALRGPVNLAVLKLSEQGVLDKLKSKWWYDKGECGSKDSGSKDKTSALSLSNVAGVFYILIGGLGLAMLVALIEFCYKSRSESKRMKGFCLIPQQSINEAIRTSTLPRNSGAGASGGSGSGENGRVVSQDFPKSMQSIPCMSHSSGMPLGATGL

No constants are given. Whether binding was seen depends on the method and setting. In cells and extracts the contact can be indirect. Some entries that bind do so weakly or less than the wild type.

The target of experiment [1] is AMPA receptor subunit GluR1, endogenous in mouse brain and neurons (mouse (endogenous in C57BL/6 brain tissue and neuronal cells)) (UniProt P23818). In words: co-IP; endogenous proteins from mouse cortex and hippocampus in non-denaturing lysis buffer; IP with anti-GluR1 or anti-CIRP (IgG control) on Protein A/G beads overnight at 4°C, Western blot of the reciprocal protein; mice under NN, 14 days HH, HH + Tat-C16, and Cirp +/+, +/- and -/- genotypes.

Experiment [2] shares this target. Kind of experiment: co-IP; endogenous proteins from neuronal cells, control or 1% O2 for 3 h; non-denaturing lysis buffer, Protein A/G beads, Western blot.

B1: full‐length CIRP protein (SPR) (natural protein)
chain: MASDEGKLFVGGLSFDTNEQALEQVFSKYGQISEVVVVKDRETQRSRGFGFVTFENIDDAKDAMMAMNGKSVDGRQIRVDQAGKSSDNRSRGYRGGSAGGRGFFRGGRSRGRGFSRGGGDRGYGGGRFESRSGGYGGSRDYYASRSQGGSYGYRSSGGSYRDSYDSYATHNE
With B1, the binding result in experiment [1] and in experiment [2] was “binds” throughout.
